From patent publication US4057530A, “2-Phenyl-indole derivatives and process for preparing the same” (priority 1974, dated 1977)

Tests used:
[1] = Extractibility of the stabilizers from bottles of Compounds Nos. 609 and 675
[2] = Extractibility of the stabilizer from Compound A containing Stabilizer 16
Experimental: This study was carried out in accordance with the requirements of the Food and Drug Administration (U.S.A.).
The extractions were performed in semi-rigid bottles, prepared with Compounds Nos. 609 and 675, and with the following solvents: water, an aqueous solution of acetic acid (3%), ethanol-water 50/50, heptane.
The ratio of the volume of solvent to the surface of plastic material exposed to extraction was about 1 cm^2 to […] of solvent, taking into account the geometric characteristics of the bottles.
The quantity of stabilizer extracted was determined by colorimetric assay using p-dimethylaminobenzaldehyde, in accordance with the method described in Analytical Chemistry 36, 425-26 (1964).
The amounts of stabilizer assayed are expressed in μg per liter of extraction solvent or, which is the same, per 1000 cm^2 of surface submitted to extraction.
The same trials were carried out with Compound A containing 2-(4'-dodecylthio-phenyl)-indole (Stabilizer 16) as stabilizer and the following results were obtained: […]

| Structure (SMILES) | Extractibility in water, times less than 2-phenyl-indole [1] | Extractibility in water, times less than 2-phenyl-indole [2] |
| --- | --- | --- |
| CCCCCCCCCCCCOc1ccc(-c2cc3ccccc3[nH]2)cc1 [Stabilizer 8, 2-(4'-dodecyloxy-phenyl)-indole] | at least 10 times less | – |
| CCCCCCCCCCCCSc1ccc(-c2cc3ccccc3[nH]2)cc1 [Stabilizer 16, 2-(4'-n-dodecylthio-phenyl)-indole] | – | at least 10 times less |
